Assay in all cases: pull-down; GST-Gal80 fusions immobilised on GSH sepharose, incubated with bacterial (E. coli) total protein extracts containing HA3-Cyc8 or HA3-Tup1; washing of intermediary stringency; elution with 10 mM free GSH; SDS-PAGE and blot with anti-HA-peroxidase conjugate; only the target purified
For assay [1], the target named is T1, GST-Gal80 aa 81-145 F120A (S. cerevisiae) (UniProt P04387).
T1 sequence: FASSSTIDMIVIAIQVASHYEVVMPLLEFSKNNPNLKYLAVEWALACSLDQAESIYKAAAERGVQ

Amino acid sequences for entries named in this document (tags omitted).
UniProt P16649: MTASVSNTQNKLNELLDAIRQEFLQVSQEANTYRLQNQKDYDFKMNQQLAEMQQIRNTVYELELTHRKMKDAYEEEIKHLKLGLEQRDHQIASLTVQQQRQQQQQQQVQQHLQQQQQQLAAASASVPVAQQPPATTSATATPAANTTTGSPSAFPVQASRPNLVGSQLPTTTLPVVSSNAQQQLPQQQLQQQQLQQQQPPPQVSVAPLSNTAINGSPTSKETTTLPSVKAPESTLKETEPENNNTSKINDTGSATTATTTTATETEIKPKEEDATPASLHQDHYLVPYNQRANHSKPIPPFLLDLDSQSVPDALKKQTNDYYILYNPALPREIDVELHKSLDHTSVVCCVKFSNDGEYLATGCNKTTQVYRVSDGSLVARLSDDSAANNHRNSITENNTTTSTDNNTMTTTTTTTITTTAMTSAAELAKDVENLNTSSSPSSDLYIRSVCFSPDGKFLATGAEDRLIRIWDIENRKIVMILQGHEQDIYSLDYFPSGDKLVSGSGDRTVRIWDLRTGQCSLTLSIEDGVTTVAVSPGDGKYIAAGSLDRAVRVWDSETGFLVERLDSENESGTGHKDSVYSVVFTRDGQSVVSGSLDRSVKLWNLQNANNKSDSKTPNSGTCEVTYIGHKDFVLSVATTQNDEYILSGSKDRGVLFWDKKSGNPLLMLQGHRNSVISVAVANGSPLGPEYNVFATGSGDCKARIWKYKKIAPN

In assay [2] the target is T2, GST-Gal80 aa 81-145 L119A (S. cerevisiae) (UniProt P04387).
T2 sequence: T1 sequence with L39A, A40F

The target in assay [3] is T3, GST-Gal80 aa 81-145 L125A (S. cerevisiae) (UniProt P04387).
T3 sequence: T1 sequence with A40F, L45A

Assay [4] addresses T4, GST-Gal80 aa 146-290 (S. cerevisiae) (UniProt P04387).
T4 sequence: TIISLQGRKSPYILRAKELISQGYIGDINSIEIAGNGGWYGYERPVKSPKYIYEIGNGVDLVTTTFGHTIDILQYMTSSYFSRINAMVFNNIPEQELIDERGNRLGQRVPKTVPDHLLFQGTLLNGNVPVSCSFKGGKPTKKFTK

Assay [5] has as its target T1, GST-Gal80 aa 81-145 F120A (S. cerevisiae). The source holds these as a separate data set.
For assay [6], the target named is T2, GST-Gal80 aa 81-145 L119A (S. cerevisiae). This is another data set of the same source.
In assay [7] the target is T5, GST-Gal80 aa 81-145 LFV-AAA (pos. 119-121) (S. cerevisiae) (UniProt P04387).
T5 sequence: T1 sequence with L39A, V41A

In assay [8] the target is T6, GST-Gal80 aa 291-435 (S. cerevisiae) (UniProt P04387).
T6 sequence: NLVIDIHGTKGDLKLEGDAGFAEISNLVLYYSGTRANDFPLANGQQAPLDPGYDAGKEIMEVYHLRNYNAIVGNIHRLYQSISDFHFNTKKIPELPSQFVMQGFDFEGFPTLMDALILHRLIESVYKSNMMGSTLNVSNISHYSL

Assay [9] has as its target T7, GST-Gal80 (full-length) (S. cerevisiae) (UniProt P04387).
T7 sequence: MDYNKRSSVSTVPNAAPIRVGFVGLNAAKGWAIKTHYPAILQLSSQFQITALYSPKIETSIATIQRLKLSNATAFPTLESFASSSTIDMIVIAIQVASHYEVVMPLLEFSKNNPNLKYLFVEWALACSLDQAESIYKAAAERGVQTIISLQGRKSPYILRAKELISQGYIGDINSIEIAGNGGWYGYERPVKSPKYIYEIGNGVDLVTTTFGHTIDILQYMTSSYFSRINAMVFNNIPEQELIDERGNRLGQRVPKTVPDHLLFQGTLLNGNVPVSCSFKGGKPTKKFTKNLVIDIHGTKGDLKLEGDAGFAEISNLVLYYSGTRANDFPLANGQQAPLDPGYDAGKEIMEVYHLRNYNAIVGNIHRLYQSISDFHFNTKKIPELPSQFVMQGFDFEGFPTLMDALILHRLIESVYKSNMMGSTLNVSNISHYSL

The target of assay [10] is T8, GST-Gal80 aa 81-145 YLF-AAA (pos. 118-120) (S. cerevisiae) (UniProt P04387).
T8 sequence: T1 sequence with Y38A, L39A

Assay [11] concerns the target T9, GST-Gal80 aa 81-145 W123A (S. cerevisiae) (UniProt P04387).
T9 sequence: T1 sequence with A40F, W43A

We go through two molecules from publication PMC8801411.

Where a chain is given by its changes, count along the chain named. Where two headings read alike, the source gives them in different places. These are yes or no findings as the source states them, for the method shown. Binding seen in cells or lysates may run through a third protein. Some results given as binding are weak or reduced against the parent protein; the word gives no strength. Sequences can lack the tags named with a protein.

For the molecule “HA3-Tup1 (full length) (from UniProt P16649 1-713)”, the binding entry in [1], in [2], in assay [3] and in assay [4] was “binds” throughout.

B1: HA3-Cyc8 (aa 1-398, TPR-containing domain) (domain or fragment, UniProt P14922 1-398)
chain: MNPGGEQTIMEQPAQQQQQQQQQQQQQQQQAAVPQQPLDPLTQSTAETWLSIASLAETLGDGDRAAMAYDATLQFNPSSAKALTSLAHLYRSRDMFQRAAELYERALLVNPELSDVWATLGHCYLMLDDLQRAYNAYQQALYHLSNPNVPKLWHGIGILYDRYGSLDYAEEAFAKVLELDPHFEKANEIYFRLGIIYKHQGKWSQALECFRYILPQPPAPLQEWDIWFQLGSVLESMGEWQGAKEAYEHVLAQNQHHAKVLQQLGCLYGMSNVQFYDPQKALDYLLKSLEADPSDATTWYHLGRVHMIRTDYTAAYDAFQQAVNRDSRNPIFWCSIGVLYYQISQYRDALDAYTRAIRLNPYISEVWYDLGTLYETCNNQLSDALDAYKQAARLDVNN
Consider B1, for which the binding result in assay [5] is listed as “binds”; in assay [6] it was “binds”; in assay [7] it was “binds”; in assay [8], “no binding”; in assay [9], “binds”; in [10] it was “binds”. The binding result in [11] is “binds”.
